Data taken from EP0406297B1, “Medical use of neuropeptide Antagonist G” (IMPERIAL CANCER RESEARCH TECHNOLOGY LIMITED, priority 1988, dated 1996).
Part of at least one peptide drawing is inferred or uncertain, most often the ends. Residues, ends and D or L forms follow the SMILES beside them. No end group written: not given here.

Legend:
Swiss 3T3 cells [1] = assay: specificity: DNA synthesis with a variety of other mitogens in Swiss 3T3 cells; assay type: cell-based, murine
Swiss 3T3 cells [2] = details: 1 µM LψLB
Swiss 3T3 cells [3] = assay: Ca2+ mobilisation in Swiss 3T3 cells; assay type: cell-based, murine
Swiss 3T3 cells [4] = assay: vasopressin-stimulated DNA synthesis in Swiss 3T3 cells; assay type: cell-based, murine
[5] = test system: guinea pig pancreatic acini; details: read-out: 50% inhibition (IC50) of bombesin-stimulated amylase release; cited from earlier work
Swiss 3T3 cells [6] = assay: GRP-elicited EGF receptor transmodulation in Swiss 3T3 cells; assay type: cell-based, murine; details: 1 min
Swiss 3T3 cells [7] = assay type: cell-based, murine; details: in the presence of insulin
bombesin receptor = assay: specific [125I]GRP binding to Swiss 3T3 cells; set-up: species or system murine; details: 37°C
human fibroblasts = details: cited from earlier work
vasopressin receptor = assay: [3H]vasopressin binding in Swiss 3T3 cells; set-up: species or system murine

| Compound | inhibition of mitogenesis stimulated by EGF, PDGF, phorbol dibutyrate, cholera toxin and 8-bromo-cAMP (Swiss 3T3 cells [1]) | effect against various bombesin-like peptides (DNA synthesis) (Swiss 3T3 cells [1]; GRP 3.6 nM, bombesin 1.2 nM, litorin 1.8 nM, 20 µM antagonist D or 1 µM LψLB) | inhibition of mitogenesis stimulated by VIP (Swiss 3T3 cells [1]; VIP 3.0 nM, 20 µM antagonist D or 1 µM LψLB) | effect on bradykinin-stimulated DNA synthesis (Swiss 3T3 cells [2]) | Ca2+ mobilisation elicited by GRP (Swiss 3T3 cells [3]; 5 secs) | inhibition of vasopressin-induced DNA synthesis (Swiss 3T3 cells [4]) | IC50 [5] | epidermal growth factor (EGF) receptor transmodulation elicited by GRP (Swiss 3T3 cells [6]) | stimulation of DNA synthesis (Swiss 3T3 cells [7]) | cytosolic Ca2+ concentration (Swiss 3T3 cells [3]; Swiss 3T3 cells loaded with Fura-2) | specific binding of [125I]GRP to the cells (bombesin receptor) | mitogenic effect (human fibroblasts) | inhibition of binding of [3H]vasopressin (vasopressin receptor) |
| --- | --- | --- | --- | --- | --- | --- | --- | --- | --- | --- | --- | --- | --- |
| CC(C)C[C@@H](CN[C@@H](CC(C)C)C(N)=O)NC(=O)[C@H](Cc1c[nH]cn1)NC(=O)CNC(=O)[C@@H](NC(=O)[C@H](C)NC(=O)[C@H](Cc1c[nH]c2ccccc12)NC(=O)[C@H](CCC(N)=O)NC(=O)[C@H](CC(N)=O)NC(=O)CNC(=O)[C@H](CC(C)C)NC(=O)[C@H](CCCNC(=N)N)NC(=O)[C@H](CCC(N)=O)NC(=O)[C@@H]1CCC(=O)N1)C(C)C [[Leu^13-ψ(CH2NH)Leu^14]bombesin] (HELM PEPTIDE1{[Glp].Q.R.L.G.N.Q.W.A.V.G.H.[CC(C)C[C@@H](CN[C@@H](CC(C)C)C(N)=O)N[*:1]]}$$$$V2.0) | Neither of them inhibited | effective | Neither antagonist D nor [Leu^13-ψ(CH2NH)Leu^14]bombesin inhibited | no effect | blocked | no effect | 35 nM | blocked |  |  |  |  |  |
| RPPGFSPFR [bradykinin] |  |  |  |  |  |  |  |  | maximal stimulation | rapid and transient increase | did not inhibit | weak | did not inhibit |
